Test results from patent US20200270322A1.
No constants are given. Whether binding was seen depends on the method and setting. Some entries that bind do so weakly or less than the wild type.

Sequences of proteins named here, by UniProt entry; tags and fusion partners are left off. Residues count along the entry.
11A12, a recombinantly expressed ED-A (P02751, residues 1632-1903): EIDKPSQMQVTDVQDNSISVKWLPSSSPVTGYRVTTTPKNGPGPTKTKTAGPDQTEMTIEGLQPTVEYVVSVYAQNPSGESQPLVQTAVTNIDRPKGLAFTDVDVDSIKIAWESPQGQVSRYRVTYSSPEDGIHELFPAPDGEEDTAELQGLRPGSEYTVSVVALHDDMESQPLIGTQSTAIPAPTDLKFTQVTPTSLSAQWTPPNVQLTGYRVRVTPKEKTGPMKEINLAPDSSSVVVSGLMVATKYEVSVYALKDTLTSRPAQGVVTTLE
Recombinant EDA-domain (P02751, residues 1722-1811): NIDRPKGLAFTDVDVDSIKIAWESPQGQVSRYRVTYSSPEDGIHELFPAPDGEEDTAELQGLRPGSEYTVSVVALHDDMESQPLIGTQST

Assays:
[1] = molecular target: 11A12, a recombinantly expressed ED-A (UniProt P02751); assay: SPR, Biacore 3000, 11A12 coated on a CM5 chip
Recombinant EDA-domain = Recombinant EDA-domain (UniProt P02751); assay: ELISA on immobilised recombinant EDA-domain, detected with anti-hIL4 and anti-mouse IgG-HRP

Binder | binding [1] | binding (Recombinant EDA-domain)
ScFvF8-hIL4-ScFvF8 (protein) EVQLLESGGGLVQPGGSLRLSCAASGFTFSLFTMSWVRQAPGKGLEWVSAISGSGGSTYYADSVKGRFTISRDNSKNTLYLQMNSLRAEDTAVYYCAKSTHLYLFDYWGQGTLVTVSSGGGGSGGGGSGGGGEIVLTQSPGTLSLSPGERATLSCRASQSVSMPFLAWYQQKPGQAPRLLIYGASSRATGIPDRFSGSGSGTDFTLTISRLEPEDFAVYYCQQMRGRPPTFGQGTKVEIKSSSSGSSSSGSSSSGHKCDITLQEIIKTLNSLTEQKTLCTELTVTDIFAASKNTTEKETFCRAATVLRQFYSHHEKDTRCLGATAQQFHRHKQLIRFLKRLDRNLWGLAGLNSCPVKEANQSTLENFLERLKTIMREKYSKCSSSSSSGSSSSGSSSSGEVQLLESGGGLVQPGGSLRLSCAASGFTFSLFTMSWVRQAPGKGLEWVSAISGSGGSTYYADSVKGRFTISRDNSKNTLYLQMNSLRAEDTAVYYCAKSTHLYLFDYWGQGTLVTVSSGGGGSGGGGSGGGGEIVLTQSPGTLSLSPGERATLSCRASQSVSMPFLAWYQQKPGQAPRLLIYGASSRATGIPDRFSGSGSGTDFTLTISRLEPEDFAVYYCQQMRGRPPTFGQGTKVEIK | binds | binds
ScDbF8-hIL4 (protein) EVQLLESGGGLVQPGGSLRLSCAASGFTFSLFTMSWVRQAPGKGLEWVSAISGSGGSTYYADSVKGRFTISRDNSKNTLYLQMNSLRAEDTAVYYCAKSTHLYLFDYWGQGTLVTVSSGGSGGEIVLTQSPGTLSLSPGERATLSCRASQSVSMPFLAWYQQKPGQAPRLLIYGASSRATGIPDRFSGSGSGTDFTLTISRLEPEDFAVYYCQQMRGRPPTFGQGTKVEIKSSSSGSSSSGSSSSGEVQLLESGGGLVQPGGSLRLSCAASGFTFSLFTMSWVRQAPGKGLEWVSAISGSGGSTYYADSVKGRFTISRDNSKNTLYLQMNSLRAEDTAVYYCAKSTHLYLFDYWGQGTLVTVSSGGSGGEIVLTQSPGTLSLSPGERATLSCRASQSVSMPFLAWYQQKPGQAPRLLIYGASSRATGIPDRFSGSGSGTDFTLTISRLEPEDFAVYYCQQMRGRPPTFGQGTKVEIKGGGGSGGGGSGGGGSHKCDITLQEIIKTLNSLTEQKTLCTELTVTDIFAASKNTTEKETFCRAATVLRQFYSHHEKDTRCLGATAQQFHRHKQLIRFLKRLDRNLWGLAGLNSCPVKEANQSTLENFLERLKTIMREKYSKCSS | binds | binds
hIL4-ScDbF8 (protein) HKCDITLQEIIKTLNSLTEQKTLCTELTVTDIFAASKNTTEKETFCRAATVLRQFYSHHEKDTRCLGATAQQFHRHKQLIRFLKRLDRNLWGLAGLNSCPVKEANQSTLENFLERLKTIMREKYSKCSSGGGGSGGGGSGGGGSEVQLLESGGGLVQPGGSLRLSCAASGFTFSLFTMSWVRQAPGKGLEWVSAISGSGGSTYYADSVKGRFTISRDNSKNTLYLQMNSLRAEDTAVYYCAKSTHLYLFDYWGQGTLVTVSSGGSGGEIVLTQSPGTLSLSPGERATLSCRASQSVSMPFLAWYQQKPGQAPRLLIYGASSRATGIPDRFSGSGSGTDFTLTISRLEPEDFAVYYCQQMRGRPPTFGQGTKVEIKSSSSGSSSSGSSSSGEVQLLESGGGLVQPGGSLRLSCAASGFTFSLFTMSWVRQAPGKGLEWVSAISGSGGSTYYADSVKGRFTISRDNSKNTLYLQMNSLRAEDTAVYYCAKSTHLYLFDYWGQGTLVTVSSGGSGGEIVLTQSPGTLSLSPGERATLSCRASQSVSMPFLAWYQQKPGQAPRLLIYGASSRATGIPDRFSGSGSGTDFTLTISRLEPEDFAVYYCQQMRGRPPTFGQGTKVEIK | binds | binds
